The target of assay [1] is T1, N-terminally tagged Creld2 (FS-C2), murine (mouse) (UniProt Q9CYA0).
T1 sequence: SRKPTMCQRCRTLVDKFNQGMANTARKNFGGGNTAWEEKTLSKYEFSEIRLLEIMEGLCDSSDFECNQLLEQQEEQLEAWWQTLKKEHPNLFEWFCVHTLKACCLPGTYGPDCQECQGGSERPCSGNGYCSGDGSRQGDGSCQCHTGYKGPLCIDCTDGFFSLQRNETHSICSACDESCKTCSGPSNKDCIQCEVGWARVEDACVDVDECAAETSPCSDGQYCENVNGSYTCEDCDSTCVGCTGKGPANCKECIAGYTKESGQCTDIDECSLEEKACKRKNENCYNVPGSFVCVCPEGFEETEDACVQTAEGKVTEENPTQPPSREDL
The assay is described as follows: affinity purification with mass spectrometry.

Chains of the proteins cited; added tags and fusions are not shown. Residues count along the entry.
UniProt P11021, residues 19-654: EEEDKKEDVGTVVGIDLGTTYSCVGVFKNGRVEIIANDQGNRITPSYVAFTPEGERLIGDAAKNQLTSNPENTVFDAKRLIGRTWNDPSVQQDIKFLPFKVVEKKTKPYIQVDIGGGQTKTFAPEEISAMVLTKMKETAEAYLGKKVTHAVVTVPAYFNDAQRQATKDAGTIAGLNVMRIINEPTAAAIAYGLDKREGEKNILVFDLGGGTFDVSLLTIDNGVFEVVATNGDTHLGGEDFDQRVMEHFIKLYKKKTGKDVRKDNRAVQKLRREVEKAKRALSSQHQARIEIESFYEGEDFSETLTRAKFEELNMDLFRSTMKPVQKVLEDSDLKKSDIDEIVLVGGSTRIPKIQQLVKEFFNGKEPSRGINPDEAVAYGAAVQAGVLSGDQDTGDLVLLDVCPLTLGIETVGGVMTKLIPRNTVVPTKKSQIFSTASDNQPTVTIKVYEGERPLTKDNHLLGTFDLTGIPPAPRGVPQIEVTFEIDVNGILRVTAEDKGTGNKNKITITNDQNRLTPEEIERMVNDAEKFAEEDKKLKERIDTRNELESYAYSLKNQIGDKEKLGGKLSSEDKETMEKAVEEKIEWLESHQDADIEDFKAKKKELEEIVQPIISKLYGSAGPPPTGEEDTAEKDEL
UniProt P11142: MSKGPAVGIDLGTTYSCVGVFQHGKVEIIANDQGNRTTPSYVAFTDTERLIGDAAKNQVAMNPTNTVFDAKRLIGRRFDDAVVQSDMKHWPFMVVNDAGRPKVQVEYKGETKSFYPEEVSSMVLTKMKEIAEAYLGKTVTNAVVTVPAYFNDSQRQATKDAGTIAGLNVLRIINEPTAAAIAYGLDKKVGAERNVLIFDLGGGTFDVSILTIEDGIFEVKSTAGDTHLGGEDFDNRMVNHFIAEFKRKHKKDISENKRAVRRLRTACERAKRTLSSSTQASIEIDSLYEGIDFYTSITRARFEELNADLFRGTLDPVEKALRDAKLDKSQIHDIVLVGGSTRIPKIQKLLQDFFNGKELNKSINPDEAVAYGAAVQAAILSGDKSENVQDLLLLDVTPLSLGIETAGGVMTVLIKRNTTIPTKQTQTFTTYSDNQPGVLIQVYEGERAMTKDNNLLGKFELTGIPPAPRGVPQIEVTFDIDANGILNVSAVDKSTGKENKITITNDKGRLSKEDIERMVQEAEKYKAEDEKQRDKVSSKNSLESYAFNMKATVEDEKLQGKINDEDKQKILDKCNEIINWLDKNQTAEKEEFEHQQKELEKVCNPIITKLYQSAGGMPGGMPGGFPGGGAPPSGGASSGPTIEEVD
UniProt Q8NBS9, residues 33-432: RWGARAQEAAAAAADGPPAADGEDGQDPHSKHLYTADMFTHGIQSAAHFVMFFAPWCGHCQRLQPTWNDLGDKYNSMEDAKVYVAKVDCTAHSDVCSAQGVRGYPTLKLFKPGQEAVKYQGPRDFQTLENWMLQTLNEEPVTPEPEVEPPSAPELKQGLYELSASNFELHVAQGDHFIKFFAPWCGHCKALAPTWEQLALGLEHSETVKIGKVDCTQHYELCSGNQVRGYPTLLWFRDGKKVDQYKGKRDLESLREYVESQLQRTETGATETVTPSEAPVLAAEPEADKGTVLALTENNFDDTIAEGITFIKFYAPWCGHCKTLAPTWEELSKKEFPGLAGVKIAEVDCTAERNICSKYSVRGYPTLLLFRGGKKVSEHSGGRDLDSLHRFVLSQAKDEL

Assay [2] has as its target T2, C-terminally tagged Creld2 (C2-SF), murine (mouse) (UniProt Q9CYA0).
T2 sequence: T1 sequence
The assay is described as follows: affinity purification with mass spectrometry.

Consider 6 molecules from publication doi:10.1101/2020.01.28.923136.

These are yes or no findings as the source states them, for the method shown. In cells and extracts the contact can be indirect. These calls come from enrichment with a bait or labelling near it, and not all partners need be listed. No binding means not detected with the bait. Where a sequence is shown, tags or fusion partners need not be part of it.

As to HSP90B (human (endogenous in HEK293)), the binding result in assay [1] and in assay [2] was “no binding” each time. Consider “HSPA5 (GRP78) (from UniProt P11021 19-654)”, for which the binding entry in assay [2] is listed as “binds”. Consider HSPA8 (from UniProt P11142 1-646), for which the binding entry in assay [1] and in assay [2] was “no binding” in each case.

“thioredoxin domain-containing 5 (TXNDC5) (from UniProt Q8NBS9 33-432)”: the binding result in assay [2] was “binds”.

B1: HYOU1 (protein, UniProt Q9Y4L1 33-999)
chain: LAVMSVDLGSESMKVAIVKPGVPMEIVLNKESRRKTPVIVTLKENERFFGDSAASMAIKNPKATLRYFQHLLGKQADNPHVALYQARFPEHELTFDPQRQTVHFQISSQLQFSPEEVLGMVLNYSRSLAEDFAEQPIKDAVITVPVFFNQAERRAVLQAARMAGLKVLQLINDNTATALSYGVFRRKDINTTAQNIMFYDMGSGSTVCTIVTYQMVKTKEAGMQPQLQIRGVGFDRTLGGLEMELRLRERLAGLFNEQRKGQRAKDVRENPRAMAKLLREANRLKTVLSANADHMAQIEGLMDDVDFKAKVTRVEFEELCADLFERVPGPVQQALQSAEMSLDEIEQVILVGGATRVPRVQEVLLKAVGKEELGKNINADEAAAMGAVYQAAALSKAFKVKPFVVRDAVVYPILVEFTREVEEEPGIHSLKHNKRVLFSRMGPYPQRKVITFNRYSHDFNFHINYGDLGFLGPEDLRVFGSQNLTTVKLKGVGDSFKKYPDYESKGIKAHFNLDESGVLSLDRVESVFETLVEDSAEEESTLTKLGNTISSLFGGGTTPDAKENGTDTVQEEEESPAEGSKDEPGEQVELKEEAEAPVEDGSQPPPPEPKGDATPEGEKATEKENGDKSEAQKPSEKAEAGPEGVAPAPEGEKKQKPARKRRMVEEIGVELVVLDLPDLPEDKLAQSVQKLQDLTLRDLEKQEREKAANSLEAFIFETQDKLYQPEYQEVSTEEQREEISGKLSAASTWLEDEGVGATTVMLKEKLAELRKLCQGLFFRVEERKKWPERLSALDNLLNHSSMFLKGARLIPEMDQIFTEVEMTTLEKVINETWAWKNATLAEQAKLPATEKPVLLSKDIEAKMMALDREVQYLLNKAKFTKPRPRPKDKNGTRAEPPLNASASDQGEKVIPPAGQTEDAEPISEPEKVETGSEPGDTEPLELGGPGAEPEQKEQSTGQKRPLKNDEL
In the case of B1, the binding result in assay [1] and in assay [2] was “no binding” in each case.

B2: glutathione S-transferase Mu3 (GSTM3) (enzyme, UniProt P21266 1-225)
chain: MSCESSMVLGYWDIRGLAHAIRLLLEFTDTSYEEKRYTCGEAPDYDRSQWLDVKFKLDLDFPNLPYLLDGKNKITQSNAILRYIARKHNMCGETEEEKIRVDIIENQVMDFRTQLIRLCYSSDHEKLKPQYLEELPGQLKQFSMFLGKFSWFAGEKLTFVDFLTYDILDQNRIFDPKCLDEFPNLKAFMCRFEALEKIAAYLQSDQFCKMPINNKMAQWGNKPVC
On to B2, for which the binding result in assay [2] was “binds”.
